Assay results: paper PMC8220817
These are yes or no findings as the source states them, for the method shown. In cells and extracts the contact can be indirect. Some results given as binding are weak or reduced against the parent protein; the word gives no strength.

The chains behind the UniProt entries cited, without tags or fusion partners.
UniProt P42224: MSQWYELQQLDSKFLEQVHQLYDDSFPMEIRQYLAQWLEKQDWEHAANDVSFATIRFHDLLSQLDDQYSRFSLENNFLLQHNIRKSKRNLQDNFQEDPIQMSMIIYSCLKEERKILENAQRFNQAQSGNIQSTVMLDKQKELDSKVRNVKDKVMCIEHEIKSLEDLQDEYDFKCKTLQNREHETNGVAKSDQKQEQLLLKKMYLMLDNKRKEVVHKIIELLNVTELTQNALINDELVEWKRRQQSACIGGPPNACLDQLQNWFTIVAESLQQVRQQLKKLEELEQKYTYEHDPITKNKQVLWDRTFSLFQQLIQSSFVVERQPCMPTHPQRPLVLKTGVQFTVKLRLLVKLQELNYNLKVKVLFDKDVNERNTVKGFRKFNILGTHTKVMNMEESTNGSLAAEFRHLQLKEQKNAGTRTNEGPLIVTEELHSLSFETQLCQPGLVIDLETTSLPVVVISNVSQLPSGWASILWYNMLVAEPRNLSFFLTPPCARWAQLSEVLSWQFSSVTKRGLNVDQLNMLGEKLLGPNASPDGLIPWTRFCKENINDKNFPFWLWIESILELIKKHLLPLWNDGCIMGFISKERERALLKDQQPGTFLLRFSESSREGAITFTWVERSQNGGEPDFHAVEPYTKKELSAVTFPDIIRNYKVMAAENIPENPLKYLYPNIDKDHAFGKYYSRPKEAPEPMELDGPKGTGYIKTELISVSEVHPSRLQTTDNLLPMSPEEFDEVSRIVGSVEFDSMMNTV

Target: T1, LpCat1 (lysophosphatidylcholine acyltransferase 1) (human) (UniProt Q8NF37)
T1 sequence: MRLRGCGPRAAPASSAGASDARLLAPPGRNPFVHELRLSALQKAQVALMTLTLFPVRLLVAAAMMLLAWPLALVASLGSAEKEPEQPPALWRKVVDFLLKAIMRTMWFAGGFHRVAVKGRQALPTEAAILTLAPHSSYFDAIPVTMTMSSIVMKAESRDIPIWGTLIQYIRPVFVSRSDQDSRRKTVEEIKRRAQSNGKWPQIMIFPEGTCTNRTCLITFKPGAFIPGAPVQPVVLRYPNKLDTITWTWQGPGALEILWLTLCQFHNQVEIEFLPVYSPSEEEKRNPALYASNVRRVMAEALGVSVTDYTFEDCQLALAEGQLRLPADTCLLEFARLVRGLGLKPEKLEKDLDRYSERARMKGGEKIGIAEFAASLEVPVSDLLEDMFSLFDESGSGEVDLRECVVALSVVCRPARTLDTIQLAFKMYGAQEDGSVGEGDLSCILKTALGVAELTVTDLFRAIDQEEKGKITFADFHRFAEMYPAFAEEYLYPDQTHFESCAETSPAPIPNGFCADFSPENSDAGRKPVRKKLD
Test: co-IP; lysates (IP lysis buffer) of HCC cells (Hep3B, Huh7) with LpCat1 overexpression or negative control vector incubated with anti-LpCat1 and anti-STAT1 antibodies separately overnight at 4 C; Protein A/G-agarose beads 2 h; western blotting

binding: binds
Substance: STAT1 (from UniProt P42224 1-750)
